The results in this text go back to article PMC5489314.

The chains behind the UniProt entries cited, without tags or fusion partners. Where a name states a change or a piece, a line headed by the entry shows the natural chain unless it says otherwise. A line that says so, or that is headed by a name, gives the form on record, which may keep a tag or linker.
DDR1b-KD-Cys (K655A/T416C) (Q08345-1, form named): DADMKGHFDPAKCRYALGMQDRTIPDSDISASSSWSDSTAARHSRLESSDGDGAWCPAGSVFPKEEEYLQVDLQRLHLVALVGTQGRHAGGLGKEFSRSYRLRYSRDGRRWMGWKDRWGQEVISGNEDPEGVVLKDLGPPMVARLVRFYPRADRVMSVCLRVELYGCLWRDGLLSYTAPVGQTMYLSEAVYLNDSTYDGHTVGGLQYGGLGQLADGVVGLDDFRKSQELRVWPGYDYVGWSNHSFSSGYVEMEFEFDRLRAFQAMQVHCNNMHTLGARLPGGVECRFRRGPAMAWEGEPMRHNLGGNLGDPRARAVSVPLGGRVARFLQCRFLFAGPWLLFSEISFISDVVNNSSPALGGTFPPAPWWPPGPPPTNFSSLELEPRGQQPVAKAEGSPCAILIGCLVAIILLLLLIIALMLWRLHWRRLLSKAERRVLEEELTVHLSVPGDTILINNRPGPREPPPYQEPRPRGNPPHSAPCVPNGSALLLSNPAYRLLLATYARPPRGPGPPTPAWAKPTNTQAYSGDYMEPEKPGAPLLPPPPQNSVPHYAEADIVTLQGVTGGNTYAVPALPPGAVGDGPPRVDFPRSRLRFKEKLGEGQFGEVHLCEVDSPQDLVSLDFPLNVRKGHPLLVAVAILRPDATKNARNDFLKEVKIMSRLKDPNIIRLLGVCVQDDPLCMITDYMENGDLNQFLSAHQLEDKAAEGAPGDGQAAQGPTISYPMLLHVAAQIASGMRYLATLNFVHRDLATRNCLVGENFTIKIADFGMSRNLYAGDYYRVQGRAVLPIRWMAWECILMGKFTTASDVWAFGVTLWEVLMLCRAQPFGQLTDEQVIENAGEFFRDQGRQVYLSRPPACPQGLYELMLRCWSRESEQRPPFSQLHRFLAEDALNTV
DDR1b-L152E/T416C (Q08345-1, form named): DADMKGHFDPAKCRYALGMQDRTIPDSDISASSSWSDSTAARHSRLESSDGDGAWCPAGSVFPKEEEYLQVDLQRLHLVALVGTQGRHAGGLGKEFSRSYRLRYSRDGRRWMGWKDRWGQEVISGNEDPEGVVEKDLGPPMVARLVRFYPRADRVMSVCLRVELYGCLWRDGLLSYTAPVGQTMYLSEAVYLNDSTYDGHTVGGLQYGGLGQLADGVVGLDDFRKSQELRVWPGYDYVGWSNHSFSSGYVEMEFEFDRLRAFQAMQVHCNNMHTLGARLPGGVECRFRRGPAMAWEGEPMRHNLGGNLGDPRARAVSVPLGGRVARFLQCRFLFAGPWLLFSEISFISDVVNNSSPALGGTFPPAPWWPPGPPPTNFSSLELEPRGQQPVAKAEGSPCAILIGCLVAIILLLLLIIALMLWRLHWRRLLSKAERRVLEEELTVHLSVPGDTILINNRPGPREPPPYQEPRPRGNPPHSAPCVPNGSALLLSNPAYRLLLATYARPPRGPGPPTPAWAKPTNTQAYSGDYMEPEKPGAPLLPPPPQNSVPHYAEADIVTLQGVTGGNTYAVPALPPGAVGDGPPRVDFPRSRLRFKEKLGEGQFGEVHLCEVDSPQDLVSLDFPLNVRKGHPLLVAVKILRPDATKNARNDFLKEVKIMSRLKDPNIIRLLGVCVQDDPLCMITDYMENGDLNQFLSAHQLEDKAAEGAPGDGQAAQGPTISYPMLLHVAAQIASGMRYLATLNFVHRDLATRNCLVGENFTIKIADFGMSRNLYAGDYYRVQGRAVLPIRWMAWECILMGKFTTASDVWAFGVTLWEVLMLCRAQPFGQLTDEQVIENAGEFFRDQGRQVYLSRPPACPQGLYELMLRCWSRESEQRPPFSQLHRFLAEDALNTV
DDR1b-R32E/T416C (Q08345-1, form named): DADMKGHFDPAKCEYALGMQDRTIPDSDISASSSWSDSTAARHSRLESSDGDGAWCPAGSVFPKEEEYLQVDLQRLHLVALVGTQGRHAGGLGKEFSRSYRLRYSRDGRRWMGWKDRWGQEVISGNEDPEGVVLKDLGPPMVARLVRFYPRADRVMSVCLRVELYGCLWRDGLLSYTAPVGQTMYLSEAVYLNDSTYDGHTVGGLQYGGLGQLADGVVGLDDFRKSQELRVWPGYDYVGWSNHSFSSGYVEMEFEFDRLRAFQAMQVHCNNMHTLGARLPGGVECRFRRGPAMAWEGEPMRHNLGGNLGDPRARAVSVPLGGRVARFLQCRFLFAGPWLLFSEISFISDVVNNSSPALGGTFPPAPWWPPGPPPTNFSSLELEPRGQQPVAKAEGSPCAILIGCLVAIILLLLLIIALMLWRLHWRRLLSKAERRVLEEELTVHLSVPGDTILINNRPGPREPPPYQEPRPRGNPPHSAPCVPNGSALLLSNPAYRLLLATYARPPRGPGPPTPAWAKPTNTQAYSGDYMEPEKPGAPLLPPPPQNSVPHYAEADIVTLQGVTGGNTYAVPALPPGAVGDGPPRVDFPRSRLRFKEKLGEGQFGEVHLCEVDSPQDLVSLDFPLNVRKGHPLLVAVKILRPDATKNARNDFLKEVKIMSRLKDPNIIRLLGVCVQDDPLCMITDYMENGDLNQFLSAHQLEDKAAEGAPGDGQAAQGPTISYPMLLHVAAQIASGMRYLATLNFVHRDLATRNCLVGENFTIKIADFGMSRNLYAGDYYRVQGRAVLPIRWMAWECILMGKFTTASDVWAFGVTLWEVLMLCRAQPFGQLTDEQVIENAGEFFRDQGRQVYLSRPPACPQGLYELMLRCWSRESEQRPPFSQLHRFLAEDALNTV
DDR1b-W53A/T416C (Q08345-1, form named): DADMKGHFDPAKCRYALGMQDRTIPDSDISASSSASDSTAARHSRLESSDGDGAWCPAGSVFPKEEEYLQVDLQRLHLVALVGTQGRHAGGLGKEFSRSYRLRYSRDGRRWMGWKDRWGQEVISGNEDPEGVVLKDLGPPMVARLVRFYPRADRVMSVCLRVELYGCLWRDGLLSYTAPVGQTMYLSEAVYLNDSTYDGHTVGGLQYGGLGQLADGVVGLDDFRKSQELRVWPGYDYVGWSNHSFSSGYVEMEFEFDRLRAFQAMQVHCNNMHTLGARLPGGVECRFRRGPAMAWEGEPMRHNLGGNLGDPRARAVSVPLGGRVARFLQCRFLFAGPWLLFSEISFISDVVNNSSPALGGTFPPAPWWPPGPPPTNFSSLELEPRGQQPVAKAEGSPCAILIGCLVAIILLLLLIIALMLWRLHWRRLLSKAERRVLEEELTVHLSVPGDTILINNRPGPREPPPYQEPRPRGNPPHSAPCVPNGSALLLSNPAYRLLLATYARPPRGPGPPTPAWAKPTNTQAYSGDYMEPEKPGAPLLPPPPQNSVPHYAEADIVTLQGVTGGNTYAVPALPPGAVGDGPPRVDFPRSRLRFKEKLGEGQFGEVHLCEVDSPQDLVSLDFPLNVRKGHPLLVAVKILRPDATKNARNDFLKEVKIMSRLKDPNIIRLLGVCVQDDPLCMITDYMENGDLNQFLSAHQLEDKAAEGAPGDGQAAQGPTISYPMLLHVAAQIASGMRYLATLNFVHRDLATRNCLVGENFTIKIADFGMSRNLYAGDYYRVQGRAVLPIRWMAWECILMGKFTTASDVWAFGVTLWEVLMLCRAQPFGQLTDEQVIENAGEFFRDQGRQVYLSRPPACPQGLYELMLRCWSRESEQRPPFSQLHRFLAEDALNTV
DDR1b-ΔECD-Cys (Q08345-1, form named): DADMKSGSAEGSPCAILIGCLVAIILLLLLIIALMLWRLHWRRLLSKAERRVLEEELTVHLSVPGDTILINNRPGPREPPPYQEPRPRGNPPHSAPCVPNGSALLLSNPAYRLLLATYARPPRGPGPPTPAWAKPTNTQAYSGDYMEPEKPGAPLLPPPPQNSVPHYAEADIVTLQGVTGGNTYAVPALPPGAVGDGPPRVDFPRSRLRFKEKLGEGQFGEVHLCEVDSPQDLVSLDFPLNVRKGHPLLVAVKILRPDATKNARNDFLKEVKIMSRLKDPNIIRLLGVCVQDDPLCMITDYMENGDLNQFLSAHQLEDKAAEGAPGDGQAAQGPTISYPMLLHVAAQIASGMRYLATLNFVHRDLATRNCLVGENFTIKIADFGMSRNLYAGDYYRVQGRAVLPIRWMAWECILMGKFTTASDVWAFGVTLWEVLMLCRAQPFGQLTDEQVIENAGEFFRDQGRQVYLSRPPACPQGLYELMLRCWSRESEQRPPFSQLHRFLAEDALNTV
DDR1b-ΔECD-Cys-TM1 (Q08345-1, form named): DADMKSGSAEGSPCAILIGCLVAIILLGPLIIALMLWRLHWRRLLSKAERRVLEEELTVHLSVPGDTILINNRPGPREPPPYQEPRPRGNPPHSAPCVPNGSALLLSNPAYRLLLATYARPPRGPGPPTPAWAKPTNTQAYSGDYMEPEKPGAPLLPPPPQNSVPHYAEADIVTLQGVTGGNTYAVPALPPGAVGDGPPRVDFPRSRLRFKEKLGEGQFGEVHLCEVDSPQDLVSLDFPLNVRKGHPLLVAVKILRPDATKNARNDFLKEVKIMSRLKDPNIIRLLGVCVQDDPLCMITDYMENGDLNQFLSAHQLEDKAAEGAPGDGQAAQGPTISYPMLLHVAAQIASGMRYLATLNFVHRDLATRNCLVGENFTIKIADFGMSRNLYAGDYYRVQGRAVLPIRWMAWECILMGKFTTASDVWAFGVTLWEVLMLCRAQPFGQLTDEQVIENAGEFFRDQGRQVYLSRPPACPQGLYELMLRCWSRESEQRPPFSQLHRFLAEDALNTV

Results are given in words; binding and its absence hold for the method and conditions named. In cells and extracts the contact can be indirect. Some entries that bind do so weakly or less than the wild type.

Among the targets are DDR1b-L152E/T416C (UniProt Q08345); DDR1b-R32E/T416C (UniProt Q08345); DDR1b-W53A/T416C (UniProt Q08345); DDR1b-ΔECD-Cys (UniProt Q08345); DDR1b-ΔECD-Cys-TM1 (UniProt Q08345).
Holding throughout (assay): cross-linking; disulphide cross-link through the engineered cysteine T416C; constructs transiently expressed in HEK293; cells lysed with 30 mM NEM; non-reducing SDS-PAGE (5% or 7.5%) and Western blot with anti-DDR1
(A western blot detects proteins with antibodies after separation by electrophoresis.)

Experiment [1] addresses DDR1b-KD-Cys (K655A/T416C) (UniProt Q08345).

With “DDR1b-KD-Cys (K655A/T416C) (from UniProt Q08345-1 19-913) (receptor)”, the binding entry in experiment [1] is given as “binds”.

On to “DDR1b-L152E/T416C (from UniProt Q08345-1 19-913) (receptor)”, for which the binding entry in the experiment with DDR1b-L152E/T416C is on record as “binds”.

Take “DDR1b-R32E/T416C (from UniProt Q08345-1 19-913) (receptor)”: the binding result with DDR1b-R32E/T416C is given as “binds”.

Take “DDR1b-W53A/T416C (from UniProt Q08345-1 19-913) (receptor)”: the binding result in the experiment with DDR1b-W53A/T416C was “binds”.

Regarding “DDR1b-ΔECD-Cys (from UniProt Q08345-1 411-913) (domain or fragment)”, the binding result with DDR1b-ΔECD-Cys is on record as “binds”.

Consider “DDR1b-ΔECD-Cys-TM1 (from UniProt Q08345-1 411-913) (domain or fragment)”, for which the binding entry with DDR1b-ΔECD-Cys-TM1 is “binds”.
